In general, AC50 refers to the concentration at which the activity in the assay is half-maximal.

This is one part of the list. Further columns of the screen follow, without active or inactive calls. The list favours compounds with an active or inconclusive main result. Words in brackets tell the shape of the fitted curve; partial curves, single points and poor fits give uncertain potencies.

We go through 65 compounds from PubChem BioAssay AID493014 (National Center for Advancing Translational Sciences (NCATS), 2011).

This assay can be described thus: qHTS Assay to Find Inhibitors of Chronic Active B-Cell Receptor Signaling. The note with it: ABC-DLBCL IkBa-CBG/CBR reporter, luminescence ratio (green luciferase fused to IkBa over red control in TMD8 lymphoma cells), 4 h. A digest of the protocol:
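Compounds up to 46 uM were incubated four hours with TMD8 cells whose green CBG68 luciferase is fused to IkappaBalpha; red CBR luminescence normalised the signal, and concentration-effect curves were fitted to fusion, red and ratio data.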
On the technique in general: Quantitative high-throughput screening tests each substance at several concentrations.

[1] abbreviates: measured here: CBR red luminescence, cell number.
[2] abbreviates: measured here: IkBa-CBG green luminescence.

On to `COc1ccc(CCc2nnc(CCC(=O)NCc3cc(C(C)C)no3)o2)cc1`, for which the AC50 under setting [1] was 35.5 µM [rising, single point].

As to `CCOC(=O)COn1c(=O)c(-c2ccco2)[n+]([O-])c2ccccc21`, under setting [1], the AC50 is 4.47 µM [falling, full curve, poor fit].

As for `C(=N\n1cnnc1)/c1cccnc1`, the AC50 under setting [1] is 1.3 µM [rising, partial curve].

`O=C(OCC(=O)N1CCC(Cc2ccccc2)CC1)c1ccccc1O`: the AC50 under setting [1] is 23.1 µM [falling, partial curve, poor fit].

Consider `Cc1ccc(S(=O)(=O)NCCc2ccc(S(N)(=O)=O)cc2)cc1`, for which, under setting [1], the AC50 is 6.51 µM [falling, single point].

With `CCN1CCn2c3c(c4cc(C)ccc42)CCCC31` (configuration not stated), the half-maximal activity concentration (AC50) under setting [1] is 35.5 µM [rising, partial curve, poor fit].

Take `O=C(CSc1nnc2n1CCCN2)c1ccccc1`: the AC50 under setting [1] is 25.1 µM [falling, single point].

On to `Nc1nnc(SCC(=O)c2ccc3ccccc3c2)s1`, for which the AC50 under setting [1] is 0.0651 µM [rising, partial curve, poor fit].

With `CCC1CN(C(=O)NCc2cccc(OC)c2)c2cc(Cl)ccc2O1` (configuration not stated), the AC50 under setting [1] was 35.5 µM [falling, single point].

Regarding `c1ccc2c(c1)Cn1nc(Cc3nc4c(s3)CCCC4)nc1-2`, the concentration at half-maximal activity (AC50) under setting [1] is 15.8 µM [rising, partial curve].

`COc1ccccc1CNC(=O)OCc1nccnc1C(=O)Nc1ccc(Br)cn1`: the AC50 under setting [1] was 2.51 µM [rising, full curve, poor fit].

For `COc1ccc(Cl)cc1-n1c(C)cc(C(=O)OCC(=O)N2CC(=O)Nc3ccccc32)c1C`, the AC50 under setting [1] is 20.6 µM [falling, single point].

Turning to `COc1ccc(NC2=Nc3ccccc3CC2)cc1`, under setting [1], the AC50 is 16.4 µM [falling, partial curve].

Regarding `O=C(Nc1ccccc1C(=O)O)c1cccc(S(=O)(=O)Nc2ccc(Br)cc2)c1`, under setting [1], the AC50 is 12.6 µM [rising, partial curve, poor fit].

Regarding `Cn1c2ccccc2c(=O)c2c(=O)n(Cc3ccco3)c(-c3ccc(Cl)cc3Cl)nc21`, the AC50 under setting [1] was 1.58 µM [falling, full curve].

As for `CCOC(=O)C1CCN(C(=O)c2ccccc2NC(=O)c2ccc(Cl)cc2)CC1`, the AC50 under setting [1] is 4.11 µM [rising, full curve, poor fit].

For the compound `Cc1ccc(C(NC(=O)C2CCCCC2)c2c(O)ccc3ccccc23)cc1` (configuration not stated), under setting [1], the AC50 was 0.731 µM [rising, full curve, poor fit].

Regarding `COc1cccc(CN(C)C(=O)CCc2nnc(-c3ccsc3)o2)c1`, the AC50 under setting [1] was 35.5 µM [falling, single point].

Consider `CCOc1ncccc1C(=O)OCc1ccc(C(=O)OC)cc1`, for which the AC50 under setting [1] was 16.4 µM [falling, single point].

For the compound `CC(C)Cn1c(SCC(=O)NC(=O)NC2CCCC2)nc2ccccc21`, under setting [1], the AC50 was 35.5 µM [falling, single point].

Take `O=C(NCc1nnc(SCC(=O)N2CCCC2)o1)c1ccccc1F`: under setting [1], the AC50 is 8.2 µM [rising, partial curve, poor fit].

`CCOC(=O)C1(C)/C(=N/Nc2ccccc2OC)C(=O)C(=O)N1c1ccccc1` (configuration not stated): under setting [1], the AC50 was 0.316 µM [falling, full curve, poor fit].

Take `CCN(CC)CCCNC(=O)c1c(O)c2cc(F)cc3c2n(c1=O)C(C)CC3` (configuration not stated): the AC50 under setting [1] is 10 µM [falling, partial curve, poor fit].

As to `CCCC(=O)Nc1nc2ccc(NC(=O)c3c(F)c(F)c(OC)c(F)c3F)cc2s1`, the AC50 under setting [2] was 7.08 µM [falling, partial curve, poor fit].

Regarding `O=C(c1ccccc1)c1cc([N+](=O)[O-])ccc1N1CCOCC1`, the AC50 reads like this: under setting [1], 20.6 µM [rising, single point]; under setting [2], 16.4 µM [falling, single point].

As to `CC(C)OC(=O)CSc1nc2cc3c(cc2cc1C#N)OCO3`, the AC50 under setting [1] is 0.411 µM [rising, full curve, poor fit].

Take `COc1ccc(C(=O)/C=C/C(=O)N(Cc2ccc(F)cc2)C(C(=O)NC2CCCCC2)c2ccncc2)c(O)c1` (configuration not stated): the AC50 under setting [1] is 18.4 µM [falling, partial curve].

`O=C(Nc1ccccc1F)N1CCc2ccccc2C1`: the AC50 under setting [1] was 7.94 µM [falling, partial curve].

Regarding `CCCCOc1ccc(C(=O)N/C(=C\c2ccc([N+](=O)[O-])cc2)C(=O)OCc2ccco2)cc1`, the AC50 under setting [1] is 32.6 µM [rising, single point].

As for `Cc1[nH]c2c(Br)cccc2c1[C@H]1[C@@H](CC#N)C1(C)C`, the AC50 under setting [1] was 11.6 µM [falling, partial curve].

Turning to `CCCNC(=O)CSCc1nc(-c2ccc(SC)cc2)oc1C`, under setting [1], the AC50 is 1 µM [rising, partial curve, poor fit].

For the compound `Cn1cc([N+](=O)[O-])c(C(=O)N/N=C/c2cc3c(cc2Br)OCO3)n1`, the AC50 under setting [1] was 6.31 µM [rising, single point].

Turning to `O=C(N1CCCC1)n1c(Cc2ccccc2)nc2ccccc21`, the AC50 under setting [1] was 0.58 µM [falling, full curve].

Turning to `CC(=O)c1c(C)[nH]c(C(=O)OCC(=O)N2CCN(S(=O)(=O)c3ccc(C)cc3)CC2)c1C`, the AC50 under setting [1] was 0.291 µM [rising, full curve, poor fit].

Consider `O=C(NC1CCN(C(=O)N2c3ccccc3Sc3ccccc32)CC1)c1ccccc1Cl`, for which, under setting [1], the AC50 is 35.5 µM [falling, single point].

Take `C=CCO/N=C(/C)c1ccc(Oc2cnccn2)cc1`: the AC50 under setting [1] was 12.6 µM [rising, single point].

In the case of `O=C1N(c2cccc3ccccc23)C(c2ccccc2)N2CCCN12` (configuration not stated), the AC50 under setting [1] is 9.2 µM [falling, partial curve, poor fit].

On to `COc1ccc(CCC(=O)Nc2cc3c4c(c2)CC(=O)N4CCC3)cc1`, for which the AC50 under setting [1] is 29.1 µM [rising, single point].

`O=C(O)CN(c1ccc2c(c1)OCCO2)S(=O)(=O)c1ccccc1`: the AC50 under setting [1] was 0.116 µM [rising, full curve, poor fit].

In the case of `O=C(Cc1ccc(Br)cc1)N/N=C/c1ccc(-c2cccc(C(=O)O)c2)o1`, under setting [1], the AC50 was 14.1 µM [falling, single point].

As for `O=C(NN=C1CCCC1)c1ccc(O)cc1`, the AC50 under setting [1] was 0.282 µM [falling, full curve].

Turning to `COc1ccc(/C=C/C2=NC(=C\N(C)C)/C(=O)O2)cc1`, the AC50 under setting [1] was 0.501 µM [rising, full curve, poor fit].

As to `CO/N=C(/CNC(=O)c1ccc(Cl)cc1Cl)c1ccc(Cl)cc1`, under setting [1], the AC50 is 35.5 µM [falling, single point].

On to `Cc1cc([N+](=O)[O-])cc2c1NC(=O)C2(O)N1CCOCC1` (configuration not stated), for which the AC50 under setting [1] is 25.1 µM [rising, single point] and the AC50 under setting [2] was 22.4 µM [falling, single point].

Turning to `Cc1[nH]n(-c2ccc(Cl)c(Cl)c2)c(=O)c1CCO`, the AC50 under setting [1] is 35.5 µM [falling, single point].

Consider `COc1ccc(N2CCN(C(=O)CSc3nnc(-c4cccnc4)n3-c3ccccc3)CC2)cc1`, for which the half-maximal activity concentration (AC50) under setting [1] is 29.1 µM [rising, single point].

Consider `O=C(COc1ccc(/C=C\[N+](=O)[O-])cc1)N1CCOCC1`, for which the AC50 under setting [1] is 3.55 µM [falling, full curve].

In the case of `O=C(CC(c1ccccc1)c1cc(Br)ccc1O)N1CCCC1` (configuration not stated), the AC50 under setting [1] is 15.8 µM [falling, single point].

For the compound `CCOC(=O)C1=C(O)/C(=C/c2ccc(OCC(=O)O)c(OCC)c2)SC1=Nc1ccc(C)cc1`, the AC50 under setting [1] was 1.78 µM [rising, partial curve, poor fit].

In the case of `O=C1CSC2=NCN(c3ccc4c(c3)OCO4)CN12`, the AC50 under setting [1] is 20.6 µM [rising, single point].

As to `O=S(=O)(c1ccc(Br)s1)N1CCN(c2ccnc3cc(Cl)ccc23)CC1`, the AC50 under setting [2] was 17.8 µM [rising, partial curve, poor fit].

On to `O=C(N/N=C/c1ccc(F)cc1)c1ccc(-n2cnnn2)cc1`, for which the AC50 under setting [1] is 18.4 µM [falling, single point].

For the compound `COC(=O)c1c(NC(=O)C2Cc3ccccc3C(=O)O2)sc2c1CCCC2` (configuration not stated), the AC50 under setting [1] is 1.46 µM [falling, full curve, poor fit].

Consider `Cc1ccc(OC(=S)Nc2ccc(O)cc2)cc1`, for which, under setting [1], the AC50 was 9.2 µM [falling, partial curve, poor fit].

`CCOc1cc(CNS(=O)(=O)c2ccc3c(c2)CC(=O)N3C)cc(OCC)c1OCC`: the AC50 under setting [1] is 31.6 µM [falling, partial curve, poor fit].

Regarding `c1ccc2[nH]c(-c3cscn3)nc2c1`, under setting [1], the AC50 is 17.8 µM [falling, single point].

As to `CCCCC1CC(CSC(=N)N)OC1=O` (configuration not stated), the AC50 under setting [1] was 12.6 µM [falling, partial curve, poor fit].

In the case of `COCCCNc1nc2ccccc2nc1NS(=O)(=O)c1ccc(F)cc1`, the AC50 under setting [1] is 14.1 µM [falling, single point].

As for `CC(C)c1ccc(O)c(NC(=S)NC(=O)c2cccnc2)c1`, under setting [1], the AC50 was 35.5 µM [falling, single point].

For `CN(C)S(=O)(=O)Nc1cccc(Br)c1`, the AC50 under setting [1] was 35.5 µM [rising, single point].

Take `COc1cccc(OCC(=O)NC2CCCCC2)c1`: the AC50 under setting [1] is 15.8 µM [falling, single point].

`O=C(CN1C(=O)S/C(=C\c2ccc(Cl)cc2)C1=O)NC1C=CS(=O)(=O)C1` (configuration not stated): the AC50 under setting [1] was 2.82 µM [falling, full curve].

Consider `Cc1ccc(NC(=O)c2ccc(NCCCN3CCOCC3)c([N+](=O)[O-])c2)cc1Cl`, for which, under setting [1], the AC50 was 8.2 µM [falling, partial curve, poor fit].

For the compound `O=C1N/C(=C\c2ccccc2)c2ccccc21`, under setting [1], the AC50 was 32.6 µM [falling, single point].

With `COc1ccc(-c2nc(NC(=O)c3cc(C(C)(C)C)nn3C)sc2C)cc1`, the AC50 under setting [1] is 4.47 µM [falling, partial curve, poor fit].
